In article doi:10.1101/2021.07.31.454597 (bioRxiv, 2021):
Results are given in words; binding and its absence hold for the method and conditions named. A result given as binding can be weak or reduced; the word gives no strength.

Amino acid sequences for entries named in this document (tags omitted). A change or cut given only in a name is not applied to a line headed by its entry.
UniProt P06956: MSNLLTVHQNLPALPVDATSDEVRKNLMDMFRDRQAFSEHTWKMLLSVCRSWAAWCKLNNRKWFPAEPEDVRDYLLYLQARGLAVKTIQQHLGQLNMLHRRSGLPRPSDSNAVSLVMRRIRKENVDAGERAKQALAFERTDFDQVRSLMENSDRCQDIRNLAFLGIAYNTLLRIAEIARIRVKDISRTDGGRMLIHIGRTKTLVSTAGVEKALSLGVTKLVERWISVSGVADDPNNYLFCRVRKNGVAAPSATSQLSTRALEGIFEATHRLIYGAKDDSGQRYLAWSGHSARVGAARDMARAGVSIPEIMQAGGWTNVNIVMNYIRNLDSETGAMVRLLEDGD

Target: Cre^Yang (R72E/L115D/R199D) (UniProt P06956)
Test: cryo-EM structure

binding: binds
Substance: Cre^Yin (D33A/A36V/R192A) (from UniProt P06956 1-343) (enzyme)
